{"source": "the supplement of paper PMC8728848", "assay_in_all_cases": "glycan array binding signal (z-score within array); higher = stronger binding", "settings_in_all_cases": "glycan notation: IUPAC condensed, linker removed", "key": {"[1]": {"target": "Gal(b1-4)GlcNAc(b1-3)Gal(b1-4)Glc", "outline": "(§1)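 From the Consortium for Functional Glycomics database, 3228 arrays were curated, keeping only those whose protein sequence was available. Binding is given as a within-array Z-score averaged across arrays sharing a protein sequence and across linkers. Negative Z-scores can be read as non-binding.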"}, "[2]": {"target": "Gal(b1-4)GlcNAc(b1-3)Gal(b1-4)GlcNAc", "outline": "as §1"}, "[3]": {"target": "Gal(b1-4)GlcNAc(b1-3)Gal(b1-4)GlcNAc(b1-2)Man(a1-3)[Gal(b1-4)GlcNAc(b1-3)Gal(b1-4)GlcNAc(b1-2)Man(a1-6)]Man(b1-4)GlcNAc(b1-4)GlcNAc", "outline": "as §1"}, "[4]": {"target": "Gal(b1-4)GlcNAc(b1-3)Gal(b1-4)GlcNAc(b1-2)Man(a1-3)[Gal(b1-4)GlcNAc(b1-3)Gal(b1-4)GlcNAc(b1-2)Man(a1-6)]Man(b1-4)GlcNAc(b1-4)[Fuc(a1-6)]GlcNAc", "outline": "as §1"}, "[5]": {"target": "Gal(b1-4)GlcNAc(b1-3)Gal(b1-4)GlcNAc(b1-2)[Gal(b1-4)GlcNAc(b1-3)Gal(b1-4)GlcNAc(b1-6)]Man(a1-6)[Gal(b1-4)GlcNAc(b1-3)Gal(b1-4)GlcNAc(b1-2)Man(a1-3)]Man(b1-4)GlcNAc(b1-4)GlcNAc", "outline": "as §1"}, "[6]": {"target": "Gal(b1-4)GlcNAc(b1-3)Gal(b1-4)GlcNAc(b1-2)[Gal(b1-4)GlcNAc(b1-3)Gal(b1-4)GlcNAc(b1-6)]Man(a1-6)[Gal(b1-4)GlcNAc(b1-3)Gal(b1-4)GlcNAc(b1-2)Man(a1-3)]Man(b1-4)GlcNAc(b1-4)[Fuc(a1-6)]GlcNAc", "outline": "as §1"}, "[7]": {"target": "Gal(b1-4)GlcNAc(b1-3)Gal(b1-4)GlcNAc(b1-3)Gal(b1-4)GlcNAc", "outline": "as §1"}, "[8]": {"target": "Gal(b1-4)GlcNAc(b1-3)Gal(b1-4)GlcNAc(b1-3)Gal(b1-4)GlcNAc(b1-2)Man(a1-3)[Gal(b1-4)GlcNAc(b1-3)Gal(b1-4)GlcNAc(b1-3)Gal(b1-4)GlcNAc(b1-2)Man(a1-6)]Man(b1-4)GlcNAc(b1-4)GlcNAc", "outline": "as §1"}, "[9]": {"target": "Gal(b1-4)GlcNAc(b1-3)Gal(b1-4)GlcNAc(b1-3)Gal(b1-4)GlcNAc(b1-2)Man(a1-3)[Gal(b1-4)GlcNAc(b1-3)Gal(b1-4)GlcNAc(b1-3)Gal(b1-4)GlcNAc(b1-2)Man(a1-6)]Man(b1-4)GlcNAc(b1-4)[Fuc(a1-6)]GlcNAc", "outline": "as §1"}, "[10]": {"target": "Gal(b1-4)GlcNAc(b1-3)Gal(b1-4)GlcNAc(b1-3)Gal(b1-4)GlcNAc(b1-2)[Gal(b1-4)GlcNAc(b1-3)Gal(b1-4)GlcNAc(b1-3)Gal(b1-4)GlcNAc(b1-6)]Man(a1-6)[Gal(b1-4)GlcNAc(b1-3)Gal(b1-4)GlcNAc(b1-3)Gal(b1-4)GlcNAc(b1-2)Man(a1-3)]Man(b1-4)GlcNAc(b1-4)[Fuc(a1-6)]GlcNAc", "outline": "as §1"}, "[11]": {"target": "Gal(b1-4)GlcNAc(b1-3)Gal(b1-4)GlcNAc(b1-3)Gal(b1-4)GlcNAc(b1-3)Gal(b1-4)GlcNAc(b1-2)Man(a1-3)[Gal(b1-4)GlcNAc(b1-3)Gal(b1-4)GlcNAc(b1-3)Gal(b1-4)GlcNAc(b1-3)Gal(b1-4)GlcNAc(b1-2)Man(a1-6)]Man(b1-4)GlcNAc(b1-4)GlcNAc", "outline": "as §1"}, "[12]": {"target": "Gal(b1-4)GlcNAc(b1-3)Gal(b1-4)GlcNAc(b1-3)Gal(b1-4)GlcNAc(b1-3)Gal(b1-4)GlcNAc(b1-2)Man(a1-3)[Gal(b1-4)GlcNAc(b1-3)Gal(b1-4)GlcNAc(b1-3)Gal(b1-4)GlcNAc(b1-3)Gal(b1-4)GlcNAc(b1-2)Man(a1-6)]Man(b1-4)GlcNAc(b1-4)[Fuc(a1-6)]GlcNAc", "outline": "as §1"}, "[13]": {"target": "Gal(b1-4)GlcNAc(b1-3)Gal(b1-4)GlcNAc(b1-3)Gal(b1-4)GlcNAc(b1-3)Gal(b1-4)GlcNAc(b1-2)[Gal(b1-4)GlcNAc(b1-3)Gal(b1-4)GlcNAc(b1-3)Gal(b1-4)GlcNAc(b1-3)Gal(b1-4)GlcNAc(b1-6)]Man(a1-6)[Gal(b1-4)GlcNAc(b1-3)Gal(b1-4)GlcNAc(b1-3)Gal(b1-4)GlcNAc(b1-3)Gal(b1-4)GlcNAc(b1-2)Man(a1-3)]Man(b1-4)GlcNAc(b1-4)[Fuc(a1-6)]GlcNAc", "outline": "as §1"}, "[14]": {"target": "Gal(b1-4)GlcNAc(b1-3)Gal(b1-4)GlcNAc(b1-3)Gal(b1-4)GlcNAc(b1-3)Gal(b1-4)GlcNAc(b1-3)Gal(b1-4)GlcNAc(b1-2)Man(a1-3)[Gal(b1-4)GlcNAc(b1-3)Gal(b1-4)GlcNAc(b1-3)Gal(b1-4)GlcNAc(b1-3)Gal(b1-4)GlcNAc(b1-3)Gal(b1-4)GlcNAc(b1-2)Man(a1-6)]Man(b1-4)GlcNAc(b1-4)GlcNAc", "outline": "as §1"}, "[15]": {"target": "Gal(b1-4)GlcNAc(b1-3)Gal(b1-4)GlcNAc(b1-3)Gal(b1-4)GlcNAc(b1-3)Gal(b1-4)GlcNAc(b1-3)Gal(b1-4)GlcNAc(b1-2)Man(a1-3)[Gal(b1-4)GlcNAc(b1-3)Gal(b1-4)GlcNAc(b1-3)Gal(b1-4)GlcNAc(b1-3)Gal(b1-4)GlcNAc(b1-3)Gal(b1-4)GlcNAc(b1-2)Man(a1-6)]Man(b1-4)GlcNAc(b1-4)[Fuc(a1-6)]GlcNAc", "outline": "as §1"}, "[16]": {"target": "Gal(b1-4)GlcNAc(b1-3)Gal(b1-4)GlcNAc(b1-3)Gal(b1-4)GlcNAc(b1-3)Gal(b1-4)GlcNAc(b1-3)Gal(b1-4)GlcNAc(b1-2)[Gal(b1-4)GlcNAc(b1-3)Gal(b1-4)GlcNAc(b1-3)Gal(b1-4)GlcNAc(b1-3)Gal(b1-4)GlcNAc(b1-3)Gal(b1-4)GlcNAc(b1-6)]Man(a1-6)[Gal(b1-4)GlcNAc(b1-3)Gal(b1-4)GlcNAc(b1-3)Gal(b1-4)GlcNAc(b1-3)Gal(b1-4)GlcNAc(b1-3)Gal(b1-4)GlcNAc(b1-2)Man(a1-3)]Man(b1-4)GlcNAc(b1-4)[Fuc(a1-6)]GlcNAc", "outline": "as §1"}, "[17]": {"target": "Gal(b1-4)GlcNAc(b1-3)Gal(b1-4)GlcNAc(b1-3)Gal(b1-4)GlcNAc(b1-3)Gal(b1-4)GlcNAc(b1-3)Gal(b1-4)GlcNAc(b1-3)Gal(b1-4)GlcNAc(b1-2)Man(a1-3)[Gal(b1-4)GlcNAc(b1-3)Gal(b1-4)GlcNAc(b1-3)Gal(b1-4)GlcNAc(b1-3)Gal(b1-4)GlcNAc(b1-3)Gal(b1-4)GlcNAc(b1-3)Gal(b1-4)GlcNAc(b1-2)Man(a1-6)]Man(b1-4)GlcNAc(b1-4)GlcNAc", "outline": "as §1"}, "[18]": {"target": "Gal(b1-4)GlcNAc(b1-3)Gal(b1-4)GlcNAc(b1-3)GalNAc", "outline": "as §1"}, "[19]": {"target": "Gal(b1-4)GlcNAc(b1-3)Gal(b1-4)GlcNAc(b1-3)[Gal(b1-4)GlcNAc(b1-3)Gal(b1-4)GlcNAc(b1-6)]GalNAc", "outline": "as §1"}}, "note": "Some of the results follow."}
{"binder": "PX9961KLbvu-535-38-535 (Bacteroides vulgatus) (protein) DKAYTDAESYTKGLHKIYSVWALSGQDGSSSSDISGLDAGNTALLRCWWTLQEQPTDEMKNAWNDAWCTEVNYMTWTTNKVEPIEGVYQRCMYIVALVNEFLKNIPNAPESIDKESYIAQARFNRAFAYYVLMDMFALPPFITEKNYSIEPAPLSREDLFNWIEAELNEIKPNLPSPRSEYGVADQAVASALLARMYLNAEIYTGKARYTECINACNEVIKAGYQLADNYADLFKADNGENPDTKKEIIYPIIFDGDKTQSWGMAAIIIGARGAEDKDVLLAHSGVDQGWAGFRATSNLVHLFDFQNDEEPKASEIQDKRGIFYDKGRSIDITSSVSGTFETEGWSVFKFSNLNSNGQPGKNTLWVDTDFPMFRLGDIYLMYAEAVARGGEGSKASAVEYINALRKRAYGDDKHNISENWLEENNFRNLLDERGRELYWEGIRRTDLVRFDLLTSGSYTWDFKGGINTGVGVNKRYNVYPIPVTDLTVNGNLQQNEGY", "values": [{"measurement": "glycan array binding signal (z-score)", "setting": "[1]", "value": -0.034}, {"measurement": "glycan array binding signal (z-score)", "setting": "[2]", "value": -0.347}, {"measurement": "glycan array binding signal (z-score)", "setting": "[3]", "value": 1.18}, {"measurement": "glycan array binding signal (z-score)", "setting": "[4]", "value": -0.389}, {"measurement": "glycan array binding signal (z-score)", "setting": "[5]", "value": 0.487}, {"measurement": "glycan array binding signal (z-score)", "setting": "[6]", "value": 0.642}, {"measurement": "glycan array binding signal (z-score)", "setting": "[7]", "value": -1.26}, {"measurement": "glycan array binding signal (z-score)", "setting": "[8]", "value": 0.605}, {"measurement": "glycan array binding signal (z-score)", "setting": "[9]", "value": 0.109}, {"measurement": "glycan array binding signal (z-score)", "setting": "[10]", "value": 1.11}, {"measurement": "glycan array binding signal (z-score)", "setting": "[11]", "value": 1.57}, {"measurement": "glycan array binding signal (z-score)", "setting": "[12]", "value": 0.419}, {"measurement": "glycan array binding signal (z-score)", "setting": "[13]", "value": 0.197}, {"measurement": "glycan array binding signal (z-score)", "setting": "[14]", "value": -0.077}, {"measurement": "glycan array binding signal (z-score)", "setting": "[15]", "value": -0.238}, {"measurement": "glycan array binding signal (z-score)", "setting": "[16]", "value": 0.274}, {"measurement": "glycan array binding signal (z-score)", "setting": "[17]", "value": -0.374}, {"measurement": "glycan array binding signal (z-score)", "setting": "[18]", "value": -0.247}, {"measurement": "glycan array binding signal (z-score)", "setting": "[19]", "value": 0.396}]}
